The target of experiment [1] is T1, FZD10-Nluc (wild type) (human) (UniProt Q9ULW2).
T1 sequence: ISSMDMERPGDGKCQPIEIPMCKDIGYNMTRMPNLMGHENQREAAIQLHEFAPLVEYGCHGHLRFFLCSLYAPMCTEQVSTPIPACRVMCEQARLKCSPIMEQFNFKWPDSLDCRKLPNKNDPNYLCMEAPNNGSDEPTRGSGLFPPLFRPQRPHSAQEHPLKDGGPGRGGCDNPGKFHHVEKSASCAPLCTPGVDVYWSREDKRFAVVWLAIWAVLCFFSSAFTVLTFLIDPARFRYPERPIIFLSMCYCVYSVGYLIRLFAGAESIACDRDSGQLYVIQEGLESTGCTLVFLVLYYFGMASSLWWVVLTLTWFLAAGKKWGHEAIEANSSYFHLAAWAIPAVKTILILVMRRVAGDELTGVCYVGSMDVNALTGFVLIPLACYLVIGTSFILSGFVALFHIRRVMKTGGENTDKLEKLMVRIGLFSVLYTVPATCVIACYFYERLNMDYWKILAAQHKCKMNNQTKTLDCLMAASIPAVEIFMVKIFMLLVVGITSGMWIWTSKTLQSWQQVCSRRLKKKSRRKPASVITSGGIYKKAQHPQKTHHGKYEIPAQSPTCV
The experiment in a line: FRET or BRET; direct BRET titration in living HEK293A cells: constant amount of receptor-Nluc plasmid (donor), increasing amounts of DEP-Venus plasmid (acceptor); no WNT added (constitutive); HBSS, coelenterazine h 5 µM, 37 °C; net BRET fitted with a one site-specific binding equation (BRET50, BRETmax). A general note: Bioluminescence resonance energy transfer reports proximity on the nanometre scale.

By UniProt entry, the sequences of proteins in these tests, tags left out. Residues count along the entry.
UniProt Q13467, residues 27-585: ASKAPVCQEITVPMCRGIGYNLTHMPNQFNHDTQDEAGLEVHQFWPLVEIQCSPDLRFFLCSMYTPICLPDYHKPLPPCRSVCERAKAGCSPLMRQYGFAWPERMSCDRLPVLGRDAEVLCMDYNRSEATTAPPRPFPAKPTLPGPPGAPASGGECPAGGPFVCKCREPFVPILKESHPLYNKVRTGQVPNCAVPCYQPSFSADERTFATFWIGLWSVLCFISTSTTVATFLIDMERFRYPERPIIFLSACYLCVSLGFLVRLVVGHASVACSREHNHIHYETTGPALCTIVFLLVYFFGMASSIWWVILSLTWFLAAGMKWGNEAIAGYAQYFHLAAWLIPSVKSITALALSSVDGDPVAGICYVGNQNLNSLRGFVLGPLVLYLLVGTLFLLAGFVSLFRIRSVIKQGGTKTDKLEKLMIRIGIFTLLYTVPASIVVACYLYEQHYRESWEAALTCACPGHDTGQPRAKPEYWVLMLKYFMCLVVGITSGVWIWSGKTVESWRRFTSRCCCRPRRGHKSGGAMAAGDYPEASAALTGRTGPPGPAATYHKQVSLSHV

Experiment [2] addresses FZD5-Nluc (wild-type human Frizzled-5, C-terminally tagged with Nanoluciferase) (human) (UniProt Q13467). Described as above.

These are yes or no findings as the source states them, for the method shown. Binding seen in cells or lysates may run through a third protein. Some entries that bind do so weakly or less than the wild type. Tags and fused reporters may be left off the sequences shown.

The values below come from paper PMC10387068.

B1: DEP-Venus (isolated DEP domain of human DVL2 tagged with mVenus) (domain or fragment, UniProt O14641 433-507)
chain: PESGLEVRDRMWLKITIPNAFLGSDVVDWLYHHVEGFPERREARKYASGLLKAGLIRHTVNKITFSEQCYYVFGD
Consider B1, for which the binding entry in experiment [1] and in experiment [2] was “binds” throughout.
